Experimental findings from the supplement of paper PMC12819154, “High-throughput peptide-centric local stability assay extends protein–ligand identification to membrane proteins, tissues and bacteria” (Nature Structural & Molecular Biology, 2025) are described below.

The chains behind the UniProt entries cited, without tags or fusion partners. Where a name states a change or a piece, a line headed by the entry shows the natural chain unless it says otherwise.
UniProt Q86YC2, whole entry: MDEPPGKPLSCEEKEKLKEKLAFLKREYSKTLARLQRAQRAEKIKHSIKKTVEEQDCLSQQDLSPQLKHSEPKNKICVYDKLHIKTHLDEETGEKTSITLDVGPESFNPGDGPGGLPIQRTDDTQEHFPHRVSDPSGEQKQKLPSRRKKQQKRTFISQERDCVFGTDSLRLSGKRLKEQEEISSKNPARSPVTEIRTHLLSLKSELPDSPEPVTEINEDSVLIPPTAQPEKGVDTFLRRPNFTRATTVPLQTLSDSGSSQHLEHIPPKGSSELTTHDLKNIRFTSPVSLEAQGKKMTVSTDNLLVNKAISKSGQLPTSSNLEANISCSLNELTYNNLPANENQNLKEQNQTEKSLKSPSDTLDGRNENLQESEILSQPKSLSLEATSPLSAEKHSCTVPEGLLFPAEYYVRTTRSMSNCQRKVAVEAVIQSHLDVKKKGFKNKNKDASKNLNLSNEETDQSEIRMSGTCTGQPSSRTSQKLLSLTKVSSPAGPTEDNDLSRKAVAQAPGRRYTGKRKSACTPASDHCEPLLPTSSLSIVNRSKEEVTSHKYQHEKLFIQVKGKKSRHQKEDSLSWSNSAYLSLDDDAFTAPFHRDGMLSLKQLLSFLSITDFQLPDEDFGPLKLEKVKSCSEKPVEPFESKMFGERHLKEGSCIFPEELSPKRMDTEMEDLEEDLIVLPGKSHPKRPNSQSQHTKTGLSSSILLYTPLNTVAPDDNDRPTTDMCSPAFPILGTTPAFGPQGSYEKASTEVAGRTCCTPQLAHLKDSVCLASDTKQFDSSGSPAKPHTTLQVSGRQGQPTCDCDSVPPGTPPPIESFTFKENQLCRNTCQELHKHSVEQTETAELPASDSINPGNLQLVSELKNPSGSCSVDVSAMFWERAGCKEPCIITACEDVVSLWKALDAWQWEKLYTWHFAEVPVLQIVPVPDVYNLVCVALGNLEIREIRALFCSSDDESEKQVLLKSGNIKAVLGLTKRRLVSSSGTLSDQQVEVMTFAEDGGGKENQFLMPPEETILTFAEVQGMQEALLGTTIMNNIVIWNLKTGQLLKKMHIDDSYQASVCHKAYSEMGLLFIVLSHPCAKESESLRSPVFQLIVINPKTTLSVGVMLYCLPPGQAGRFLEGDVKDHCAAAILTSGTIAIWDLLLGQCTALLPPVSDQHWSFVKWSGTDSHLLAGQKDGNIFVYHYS
UniProt Q86XF0: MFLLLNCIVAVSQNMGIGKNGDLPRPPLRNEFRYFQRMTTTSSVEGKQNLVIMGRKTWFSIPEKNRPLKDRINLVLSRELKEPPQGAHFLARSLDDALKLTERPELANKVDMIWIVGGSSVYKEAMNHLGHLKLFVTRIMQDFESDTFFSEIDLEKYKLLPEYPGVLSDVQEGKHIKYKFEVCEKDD
UniProt Q8IY26: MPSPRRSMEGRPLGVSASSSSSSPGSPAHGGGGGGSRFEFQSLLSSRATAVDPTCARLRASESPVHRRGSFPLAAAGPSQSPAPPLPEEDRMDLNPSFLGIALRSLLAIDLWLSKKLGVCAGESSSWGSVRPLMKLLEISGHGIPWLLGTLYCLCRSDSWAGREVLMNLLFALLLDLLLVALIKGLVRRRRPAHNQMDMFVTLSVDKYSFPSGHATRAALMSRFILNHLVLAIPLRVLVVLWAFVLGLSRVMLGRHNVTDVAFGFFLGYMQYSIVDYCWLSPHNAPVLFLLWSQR
UniProt Q8N196: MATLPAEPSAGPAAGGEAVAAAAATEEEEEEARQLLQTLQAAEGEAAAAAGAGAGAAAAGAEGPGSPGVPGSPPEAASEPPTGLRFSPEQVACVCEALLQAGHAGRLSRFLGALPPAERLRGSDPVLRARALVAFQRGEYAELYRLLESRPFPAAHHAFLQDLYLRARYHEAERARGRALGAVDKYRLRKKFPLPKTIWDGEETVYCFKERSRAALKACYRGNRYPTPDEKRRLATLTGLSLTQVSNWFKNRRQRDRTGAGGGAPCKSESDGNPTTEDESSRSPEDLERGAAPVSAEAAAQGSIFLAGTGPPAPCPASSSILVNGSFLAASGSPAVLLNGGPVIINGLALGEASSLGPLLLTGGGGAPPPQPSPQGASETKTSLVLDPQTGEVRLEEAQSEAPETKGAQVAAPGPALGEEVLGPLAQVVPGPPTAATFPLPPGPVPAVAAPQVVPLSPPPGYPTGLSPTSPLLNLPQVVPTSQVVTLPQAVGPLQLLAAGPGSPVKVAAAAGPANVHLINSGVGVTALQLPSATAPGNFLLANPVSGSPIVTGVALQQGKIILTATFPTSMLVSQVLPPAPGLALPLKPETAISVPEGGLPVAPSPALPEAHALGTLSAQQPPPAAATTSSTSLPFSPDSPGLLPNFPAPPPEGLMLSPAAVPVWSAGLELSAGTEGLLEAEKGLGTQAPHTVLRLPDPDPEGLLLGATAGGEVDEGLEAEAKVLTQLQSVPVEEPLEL
UniProt Q8IYD1, whole entry: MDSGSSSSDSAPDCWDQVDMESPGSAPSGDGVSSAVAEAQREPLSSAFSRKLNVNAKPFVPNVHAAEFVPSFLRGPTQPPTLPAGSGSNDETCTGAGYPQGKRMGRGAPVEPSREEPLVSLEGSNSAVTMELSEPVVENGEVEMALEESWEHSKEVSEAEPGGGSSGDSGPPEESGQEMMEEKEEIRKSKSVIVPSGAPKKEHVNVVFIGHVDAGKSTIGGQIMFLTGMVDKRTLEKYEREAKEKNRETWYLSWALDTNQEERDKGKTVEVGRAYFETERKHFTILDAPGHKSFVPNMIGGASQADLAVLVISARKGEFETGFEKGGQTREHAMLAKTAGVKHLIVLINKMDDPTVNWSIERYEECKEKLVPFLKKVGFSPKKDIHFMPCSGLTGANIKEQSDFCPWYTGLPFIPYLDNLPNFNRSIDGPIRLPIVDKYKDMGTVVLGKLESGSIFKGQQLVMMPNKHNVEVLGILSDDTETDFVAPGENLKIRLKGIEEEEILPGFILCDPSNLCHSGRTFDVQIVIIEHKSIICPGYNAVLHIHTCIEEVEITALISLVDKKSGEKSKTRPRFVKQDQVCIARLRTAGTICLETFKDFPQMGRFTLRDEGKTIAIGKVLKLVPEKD
UniProt Q8IUC4: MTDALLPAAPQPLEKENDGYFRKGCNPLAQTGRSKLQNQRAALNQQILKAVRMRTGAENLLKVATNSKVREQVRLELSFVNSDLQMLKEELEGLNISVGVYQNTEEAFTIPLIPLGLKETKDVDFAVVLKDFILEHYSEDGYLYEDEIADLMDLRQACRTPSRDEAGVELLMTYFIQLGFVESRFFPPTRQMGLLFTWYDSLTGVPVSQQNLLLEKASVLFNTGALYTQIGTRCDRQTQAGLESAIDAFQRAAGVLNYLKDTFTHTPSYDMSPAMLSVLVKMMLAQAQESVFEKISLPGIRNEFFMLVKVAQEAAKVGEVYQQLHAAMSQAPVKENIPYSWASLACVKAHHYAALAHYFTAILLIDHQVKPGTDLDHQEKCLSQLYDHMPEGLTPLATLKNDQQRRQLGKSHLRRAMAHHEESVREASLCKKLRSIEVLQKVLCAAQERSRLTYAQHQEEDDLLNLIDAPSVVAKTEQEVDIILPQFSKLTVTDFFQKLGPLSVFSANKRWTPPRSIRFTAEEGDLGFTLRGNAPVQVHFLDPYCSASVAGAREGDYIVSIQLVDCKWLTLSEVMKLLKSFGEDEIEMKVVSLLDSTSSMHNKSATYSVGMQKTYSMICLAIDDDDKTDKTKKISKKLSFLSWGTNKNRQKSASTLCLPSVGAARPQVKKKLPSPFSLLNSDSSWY
UniProt Q8IU81: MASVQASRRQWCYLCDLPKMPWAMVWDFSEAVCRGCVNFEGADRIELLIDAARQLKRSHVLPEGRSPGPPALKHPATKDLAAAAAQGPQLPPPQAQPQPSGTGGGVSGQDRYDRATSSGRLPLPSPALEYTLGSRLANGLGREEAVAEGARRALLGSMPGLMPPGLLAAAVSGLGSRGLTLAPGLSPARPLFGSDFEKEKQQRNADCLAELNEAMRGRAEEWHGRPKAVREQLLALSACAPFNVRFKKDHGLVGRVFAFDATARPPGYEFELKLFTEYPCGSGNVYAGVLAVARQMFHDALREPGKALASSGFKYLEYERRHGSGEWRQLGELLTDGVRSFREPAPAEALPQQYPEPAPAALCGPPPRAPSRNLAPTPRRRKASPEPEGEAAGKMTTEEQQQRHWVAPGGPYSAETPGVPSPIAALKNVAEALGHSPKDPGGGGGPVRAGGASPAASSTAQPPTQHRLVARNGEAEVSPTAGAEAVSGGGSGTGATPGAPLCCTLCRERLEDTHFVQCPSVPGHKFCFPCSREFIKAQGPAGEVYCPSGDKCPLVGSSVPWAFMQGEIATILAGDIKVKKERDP
UniProt Q8IX15: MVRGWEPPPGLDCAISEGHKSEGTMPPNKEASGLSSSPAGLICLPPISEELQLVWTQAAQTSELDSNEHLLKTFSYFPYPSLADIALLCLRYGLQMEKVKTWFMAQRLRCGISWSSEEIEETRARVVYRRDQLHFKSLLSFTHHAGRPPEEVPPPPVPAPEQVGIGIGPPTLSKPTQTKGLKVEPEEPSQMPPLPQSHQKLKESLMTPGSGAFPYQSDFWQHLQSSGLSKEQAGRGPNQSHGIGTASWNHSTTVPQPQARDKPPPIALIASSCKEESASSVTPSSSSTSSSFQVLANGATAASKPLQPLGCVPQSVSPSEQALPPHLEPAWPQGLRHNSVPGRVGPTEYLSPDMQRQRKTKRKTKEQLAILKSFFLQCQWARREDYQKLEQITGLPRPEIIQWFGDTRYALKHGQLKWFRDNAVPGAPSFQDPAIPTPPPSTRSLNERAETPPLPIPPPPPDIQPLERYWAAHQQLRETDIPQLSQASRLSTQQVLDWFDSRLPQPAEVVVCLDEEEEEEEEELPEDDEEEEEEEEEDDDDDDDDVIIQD

Some of the results follow. Most values lie at the level of the controls, where differences are scatter.

Compound in the experiment: CN[C@@H]1C[C@H]2O[C@@](C)([C@@H]1OC)n1c3ccccc3c3c4c(c5c6ccccc6n2c5c31)C(=O)NC4 [staurosporine]
In words: log2 fold change of tryptic peptide abundance, ligand vs vehicle (limited proteolysis) (log2 ratio); higher = more trypsin-susceptible (destabilized). As to conditions: ligand concentration: 20 uM; sample: K562 cleared lysate; digestion: 4 min, 22 C (HT-PELSA RT4min, Orbitrap Astral).
Regarding “AMN1 (peptide sequence: SCDISDAALLHLSNCR, peptide start residue: 70) (UniProt Q8IY45)”, the log2 fold change was 0.424.
With “PALB2 (peptide sequence: FTSPVSLEAQGK, peptide start residue: 283) (UniProt Q86YC2)” the figure was 0.521; with “UniProt Q86XF0 (peptide sequence: TWFSIPEK, peptide start residue: 57)”, 0.238; with “UniProt Q8IY26 (peptide sequence: ATAVDPTCAR, peptide start residue: 48)”, -0.452.
Regarding “SIX5 (peptide sequence: TIWDGEETVYCFKER, peptide start residue: 197) (UniProt Q8N196)”, the log2 fold change was -0.273.
For the target “GSPT2 (peptide sequence: DIHFMPCSGLTGANIK, peptide start residue: 384) (UniProt Q8IYD1)”, the log2 fold change is -0.341.
Turning to “ANKHD1 (peptide sequence: ANVVTTPSTNRK, peptide start residue: 1533) (UniProt Q8IWZ3)”, the log2 fold change was determined as 0.401.
“RHPN2 (peptide sequence: VLCAAQER, peptide start residue: 442) (UniProt Q8IUC4)”: the log2 fold change is -0.247.
As for “DCP2 (peptide sequence: EVFEETGFDIK, peptide start residue: 144) (UniProt Q8IU60)”, the log2 fold change is -0.21.
Take “IRF2BP1 (peptide sequence: RQWCYLCDLPK, peptide start residue: 9) (UniProt Q8IU81)”: the log2 fold change amounted to 0.648.
With “HOMEZ (peptide sequence: LSTQQVLDWFDSR, peptide start residue: 490) (UniProt Q8IX15)” the figure was 0.302.
